The list shows a part of the results.
How the values were obtained:
Assay in all cases: glycan array binding signal (z-score within array); higher = stronger binding
Conditions in all cases: glycan notation: IUPAC condensed, linker removed
Fuc(a1-2)Gal = biological target: Fuc(a1-2)Gal
In short: (§1)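 Columns mapping to the same glycan were averaged after glycan names were converted to IUPAC-condensed notation. The data come from 3228 arrays in the Consortium for Functional Glycomics database, limited to those with an available protein sequence. Binding is reported as a within-array Z-score averaged across arrays of one protein sequence and across linkers.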

Fuc(a1-2)Gal(b1-3)GalNAc = biological target: Fuc(a1-2)Gal(b1-3)GalNAc
In short: as §1

[1] = biological target: Fuc(a1-2)Gal(b1-3)GalNAc(a1-3)[Fuc(a1-2)]Gal(b1-4)Glc
In short: as §1

[2] = biological target: Fuc(a1-2)Gal(b1-3)GalNAc(a1-3)[Fuc(a1-2)]Gal(b1-4)GlcNAc
In short: as §1

[3] = biological target: Fuc(a1-2)Gal(b1-3)GalNAc(b1-3)Gal
In short: as §1

[4] = biological target: Fuc(a1-2)Gal(b1-3)GalNAc(b1-3)Gal(a1-4)Gal(b1-4)Glc
In short: as §1

[5] = biological target: Fuc(a1-2)Gal(b1-3)GalNAc(b1-4)[Neu5Ac(a2-3)]Gal(b1-4)Glc
In short: as §1

Fuc(a1-2)Gal(b1-3)GlcNAc = biological target: Fuc(a1-2)Gal(b1-3)GlcNAc
In short: as §1

[6] = biological target: Fuc(a1-2)Gal(b1-3)GlcNAc(b1-2)Man(a1-3)[Fuc(a1-2)Gal(b1-3)GlcNAc(b1-2)Man(a1-6)]Man(b1-4)GlcNAc(b1-4)GlcNAc
In short: as §1

[7] = biological target: Fuc(a1-2)Gal(b1-3)GlcNAc(b1-2)Man(a1-3)[Fuc(a1-2)Gal(b1-3)GlcNAc(b1-2)Man(a1-6)]Man(b1-4)GlcNAc(b1-4)[Fuc(a1-6)]GlcNAc
In short: as §1

[8] = biological target: Fuc(a1-2)Gal(b1-3)GlcNAc(b1-3)Gal(b1-4)Glc
In short: as §1

[9] = biological target: Fuc(a1-2)Gal(b1-3)GlcNAc(b1-3)GalNAc
In short: as §1

[10] = biological target: Fuc(a1-2)Gal(b1-3)GlcNAc(b1-3)[Fuc(a1-2)Gal(b1-3)GlcNAc(b1-6)]GalNAc
In short: as §1

[11] = biological target: Fuc(a1-2)Gal(b1-3)GlcNAc(b1-3)[Gal(b1-4)GlcNAc(b1-6)]Gal(b1-4)Glc
In short: as §1

[12] = biological target: Fuc(a1-2)Gal(b1-3)GlcNAc(b1-3)[Neu5Ac(a2-6)Gal(b1-4)GlcNAc(b1-6)]Gal(b1-4)Glc
In short: as §1

[13] = biological target: Fuc(a1-2)Gal(b1-3)GlcNAc6S
In short: as §1

[14] = biological target: Fuc(a1-2)Gal(b1-3)[Fuc(a1-4)]GlcNAc
In short: as §1

[15] = biological target: Fuc(a1-2)Gal(b1-3)[Fuc(a1-4)]GlcNAc(b1-2)Man(a1-3)[Fuc(a1-2)Gal(b1-3)[Fuc(a1-4)]GlcNAc(b1-2)Man(a1-3)]Man(b1-4)GlcNAc(b1-4)GlcNAc
In short: as §1

[16] = biological target: Fuc(a1-2)Gal(b1-3)[Fuc(a1-4)]GlcNAc(b1-2)Man(a1-3)[Fuc(a1-2)Gal(b1-3)[Fuc(a1-4)]GlcNAc(b1-2)Man(a1-6)]Man(b1-4)GlcNAc(b1-4)[Fuc(a1-6)]GlcNAc(b1-4)[Fuc(a1-6)]GlcNAc
In short: as §1

[17] = biological target: Fuc(a1-2)Gal(b1-3)[Fuc(a1-4)]GlcNAc(b1-3)[Fuc(a1-3)[Gal(b1-4)]GlcNAc(b1-6)]Gal(b1-4)Glc
In short: as §1

[18] = biological target: Fuc(a1-2)Gal(b1-3)[Fuc(a1-4)]GlcNAc(b1-3)[Gal(b1-4)GlcNAc(b1-6)]Gal(b1-4)Glc
In short: as §1

Fuc(a1-2)Gal(b1-4)Glc = biological target: Fuc(a1-2)Gal(b1-4)Glc
In short: as §1

Fuc(a1-2)Gal(b1-4)Glc6S = biological target: Fuc(a1-2)Gal(b1-4)Glc6S
In short: as §1

Fuc(a1-2)Gal(b1-4)GlcNAc = biological target: Fuc(a1-2)Gal(b1-4)GlcNAc
In short: as §1

[19] = biological target: Fuc(a1-2)Gal(b1-4)GlcNAc(b1-2)Man
In short: as §1

[20] = biological target: Fuc(a1-2)Gal(b1-4)GlcNAc(b1-2)Man(a1-3)[Fuc(a1-2)Gal(b1-4)GlcNAc(b1-2)Man(a1-6)]Man(b1-4)GlcNAc(b1-4)GlcNAc
In short: as §1

[21] = biological target: Fuc(a1-2)Gal(b1-4)GlcNAc(b1-2)Man(a1-3)[Fuc(a1-2)Gal(b1-4)GlcNAc(b1-2)Man(a1-6)]Man(b1-4)GlcNAc(b1-4)[Fuc(a1-6)]GlcNAc
In short: as §1

[22] = biological target: Fuc(a1-2)Gal(b1-4)GlcNAc(b1-2)[Fuc(a1-2)Gal(b1-4)GlcNAc(b1-4)]Man(a1-3)[Fuc(a1-2)Gal(b1-4)GlcNAc(b1-2)Man(a1-6)]Man(b1-4)GlcNAc(b1-4)GlcNAc
In short: as §1

[23] = biological target: Fuc(a1-2)Gal(b1-4)GlcNAc(b1-3)Gal(b1-4)GlcNAc
In short: as §1

[24] = biological target: Fuc(a1-2)Gal(b1-4)GlcNAc(b1-3)Gal(b1-4)GlcNAc(b1-2)Man(a1-3)[Fuc(a1-2)Gal(b1-4)GlcNAc(b1-3)Gal(b1-4)GlcNAc(b1-2)Man(a1-6)]Man(b1-4)GlcNAc(b1-4)GlcNAc
In short: as §1

[25] = biological target: Fuc(a1-2)Gal(b1-4)GlcNAc(b1-3)Gal(b1-4)GlcNAc(b1-3)Gal(b1-4)GlcNAc
In short: as §1

[26] = biological target: Fuc(a1-2)Gal(b1-4)GlcNAc(b1-3)GalNAc
In short: as §1

[27] = biological target: Fuc(a1-2)Gal(b1-4)GlcNAc(b1-3)[Fuc(a1-2)Gal(b1-4)GlcNAc(b1-6)]GalNAc
In short: as §1

[28] = biological target: Fuc(a1-2)Gal(b1-4)GlcNAc(b1-3)[Fuc(a1-3)[Gal(b1-4)]GlcNAc(b1-6)]Gal(b1-4)Glc
In short: as §1

[29] = biological target: Fuc(a1-2)Gal(b1-4)GlcNAc(b1-6)GalNAc
In short: as §1

[30] = biological target: Fuc(a1-2)Gal(b1-4)GlcNAc6S
In short: as §1

[31] = biological target: Fuc(a1-2)Gal(b1-4)[Fuc(a1-3)]GlcNAc
In short: as §1

[32] = biological target: Fuc(a1-2)Gal(b1-4)[Fuc(a1-3)]GlcNAc(b1-2)Man(a1-3)[Fuc(a1-2)Gal(b1-4)[Fuc(a1-3)]GlcNAc(b1-2)Man(a1-6)]Man(b1-4)GlcNAc(b1-4)[Fuc(a1-6)]GlcNAc
In short: as §1

[33] = biological target: Fuc(a1-2)Gal(b1-4)[Fuc(a1-3)]GlcNAc(b1-2)[Fuc(a1-2)Gal(b1-4)[Fuc(a1-3)]GlcNAc(b1-4)]Man(a1-3)[Fuc(a1-2)Gal(b1-4)[Fuc(a1-3)]GlcNAc(b1-2)Man(a1-6)]Man(b1-4)GlcNAc(b1-4)GlcNAc
In short: as §1

[34] = biological target: Fuc(a1-2)Gal(b1-4)[Fuc(a1-3)]GlcNAc(b1-3)Gal(b1-4)[Fuc(a1-3)]GlcNAc
In short: as §1

[35] = biological target: Fuc(a1-2)Gal(b1-4)[Fuc(a1-3)]GlcNAc(b1-3)Gal(b1-4)[Fuc(a1-3)]GlcNAc(b1-3)Gal(b1-4)[Fuc(a1-3)]GlcNAc
In short: as §1

[36] = biological target: Fuc(a1-2)Gal(b1-4)[Fuc(a1-3)]GlcNAc(b1-3)GalNAc
In short: as §1

[37] = biological target: Fuc(a1-2)Gal(b1-4)[Fuc(a1-3)]GlcNAc(b1-3)[Neu5Ac(a2-6)Gal(b1-4)GlcNAc(b1-6)]Gal(b1-4)Glc
In short: as §1

[38] = biological target: Fuc(a1-2)Gal3S(b1-4)GlcNAc
In short: as §1

[39] = biological target: Fuc(a1-2)Gal6S(b1-3)GlcNAc
In short: as §1

B1: SAOUHSC 02783 (Staphylococcus aureus), Q5HD69 (protein)
chain: MIHSKKLTLGICLVLLIILIVGYVIMTKTNGRNAQIKDTFNQTLKLYPTKNLDDFYDKEGFRDQEFKKGDKGTWIVNSEMVIEPKGKDMETRGMVLYINRNTRTTKGYYFISEMTDDSNGRPKDDEKRYPVKMEHNKIIPTKPLPNDKLKKEIENFKFFVQYGNFKDINDYKDGDISYNPNVPSYSAKYQLNNDDYNVQQLRKRYDIPTKQAPKLLLKGDGDLKGSSVGSRSLEFTFVENKEENIYFTDSVQYTPSEDTRYESN
**Q.** Which results are given for B1?
**A.** glycan array binding signal (z-score) (Fuc(a1-2)Gal): 0.572; glycan array binding signal (z-score) (Fuc(a1-2)Gal(b1-3)GalNAc): -0.714; glycan array binding signal (z-score) [1]: -1.02; glycan array binding signal (z-score) [2]: -1.12; glycan array binding signal (z-score) [3]: 0.119; glycan array binding signal (z-score) [4]: 0.489; glycan array binding signal (z-score) [5]: 0.071; glycan array binding signal (z-score) (Fuc(a1-2)Gal(b1-3)GlcNAc): -0.076; glycan array binding signal (z-score) [6]: 0.299; glycan array binding signal (z-score) [7]: 2.61; glycan array binding signal (z-score) [8]: -0.206; glycan array binding signal (z-score) [9]: -0.771; glycan array binding signal (z-score) [10]: 2.12; glycan array binding signal (z-score) [11]: 1.13; glycan array binding signal (z-score) [12]: -0.854; glycan array binding signal (z-score) [13]: -1.79; glycan array binding signal (z-score) [14]: -0.029; glycan array binding signal (z-score) [15]: 0.584; glycan array binding signal (z-score) [16]: -0.125; glycan array binding signal (z-score) [17]: -0.339; glycan array binding signal (z-score) [18]: -0.055; glycan array binding signal (z-score) (Fuc(a1-2)Gal(b1-4)Glc): -0.376; glycan array binding signal (z-score) (Fuc(a1-2)Gal(b1-4)Glc6S): 0.362; glycan array binding signal (z-score) (Fuc(a1-2)Gal(b1-4)GlcNAc): -0.378; glycan array binding signal (z-score) [19]: 0.376; glycan array binding signal (z-score) [20]: 0.526; glycan array binding signal (z-score) [21]: 1.56; glycan array binding signal (z-score) [22]: 1.41; glycan array binding signal (z-score) [23]: -1.87; glycan array binding signal (z-score) [24]: -0.248; glycan array binding signal (z-score) [25]: 0.25; glycan array binding signal (z-score) [26]: 0.108; glycan array binding signal (z-score) [27]: 2.08; glycan array binding signal (z-score) [28]: -0.255; glycan array binding signal (z-score) [29]: -1.38; glycan array binding signal (z-score) [30]: 0.902; glycan array binding signal (z-score) [31]: -0.193; glycan array binding signal (z-score) [32]: -0.63; glycan array binding signal (z-score) [33]: 4.52; glycan array binding signal (z-score) [34]: -0.653; glycan array binding signal (z-score) [35]: -0.71; glycan array binding signal (z-score) [36]: 0.185; glycan array binding signal (z-score) [37]: -0.818; glycan array binding signal (z-score) [38]: -0.755; glycan array binding signal (z-score) [39]: -0.876
